Data source: PubChem BioAssay AID1224830 (NIAID, 2016)

Test: 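Host factors that control LPS-induced TNF expression in human macrophages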 (primary screen)
Cells: human THP-1 monocytic leukaemia cells, TNF dual-luciferase reporter clone, PMA-differentiated to macrophage-like cells
Reagent: siRNA pool against human genes, 50 nM
Time to read-out: LPS for 4 h, given about 3 days after siRNA transfection
Conditions: bacterial LPS (TLR4 ligand), 10 ng/ml
Detection: 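Ratio of firefly to renilla light, scaled to the plate median and expressed as a robust z-score per replicate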
Reading the numbers: TNF reporter robust z-score: higher = stronger TNF reporter response to LPS
Active means: 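Each well counts as active if its z-score is over 2.8 or under -1.5; controls are left without a call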
The deposit covers about 18,000 reagents; below is an unselected part. Of all reagents, about 2,900 (16%) got an active call. 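Calls are made per well; low scores hint the gene aids the LPS response, high scores that it dampens it.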 Repeated entries: four replicate wells of each siRNA pool.

Target gene	TNF reporter robust z-score	outcome
CAPZA1 (GeneID 829)	1.21	inactive
CAPZA1 (GeneID 829)	-0.5	inactive
CAPZA1 (GeneID 829)	-1.28	inactive
CAPZA1 (GeneID 829)	-0.61	inactive
CHN1 (GeneID 1123)	0.82	inactive
CHN1 (GeneID 1123)	2.13	inactive
CHN1 (GeneID 1123)	0.78	inactive
CHN1 (GeneID 1123)	1.23	inactive
FUT2 (GeneID 2524)	-1.69	active
FUT2 (GeneID 2524)	-1.16	inactive
FUT2 (GeneID 2524)	-1.75	active
FUT2 (GeneID 2524)	-0.8	inactive
RAB12 (GeneID 201475)	0.69	inactive
RAB12 (GeneID 201475)	-0.13	inactive
RAB12 (GeneID 201475)	-0.3	inactive
RAB12 (GeneID 201475)	-0.1	inactive
ATP1B3 (GeneID 483)	-0.88	inactive
ATP1B3 (GeneID 483)	-1.35	inactive
ATP1B3 (GeneID 483)	-1.41	inactive
ATP1B3 (GeneID 483)	-1.26	inactive

Hits, among the entries above:
Target gene	TNF reporter robust z-score	outcome
FUT2 (GeneID 2524)	-1.69	active
FUT2 (GeneID 2524)	-1.75	active

The results go on:
Target gene	TNF reporter robust z-score	outcome
MYO5C (GeneID 55930)	0.41	inactive
MYO5C (GeneID 55930)	0	inactive
MYO5C (GeneID 55930)	-0.01	inactive
MYO5C (GeneID 55930)	0.38	inactive
HSP90AB1 (GeneID 3326)	0.39	inactive
HSP90AB1 (GeneID 3326)	0.43	inactive
HSP90AB1 (GeneID 3326)	-0.06	inactive
HSP90AB1 (GeneID 3326)	0.27	inactive
PFN1 (GeneID 5216)	-1.24	inactive
PFN1 (GeneID 5216)	0.06	inactive
PFN1 (GeneID 5216)	-1.06	inactive
PFN1 (GeneID 5216)	-1.35	inactive
GPR149 (GeneID 344758)	1.99	inactive
GPR149 (GeneID 344758)	-0.46	inactive
GPR149 (GeneID 344758)	-0.59	inactive
GPR149 (GeneID 344758)	0.1	inactive
SACK1B (GeneID 222584)	2.01	inactive
SACK1B (GeneID 222584)	2.28	inactive
SACK1B (GeneID 222584)	3.34	active
SACK1B (GeneID 222584)	2.99	active
NLRP8 (GeneID 126205)	-0.48	inactive
NLRP8 (GeneID 126205)	-0.33	inactive
NLRP8 (GeneID 126205)	0.1	inactive
NLRP8 (GeneID 126205)	0.61	inactive
CCT6A (GeneID 908)	0.8	inactive
CCT6A (GeneID 908)	1.46	inactive
CCT6A (GeneID 908)	0.34	inactive
CCT6A (GeneID 908)	-0.08	inactive
